For 42 sequences, binding signal results are on record in paper PMC7819943, “Rice protein-binding microarrays: a tool to detect cis-acting elements near promoter regions in rice”.

Sequences of proteins named here, by UniProt entry; tags and fusion partners are left off.
UniProt Q0JBA9, entry or part of it: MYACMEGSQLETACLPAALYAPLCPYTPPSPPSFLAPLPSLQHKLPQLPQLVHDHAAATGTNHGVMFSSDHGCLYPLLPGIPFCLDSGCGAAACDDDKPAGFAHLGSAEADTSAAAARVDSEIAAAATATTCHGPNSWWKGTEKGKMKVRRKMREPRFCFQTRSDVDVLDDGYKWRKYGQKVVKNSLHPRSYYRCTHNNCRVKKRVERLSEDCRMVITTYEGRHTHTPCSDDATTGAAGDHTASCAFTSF

The list shows a part of the results.

The assay concerns the target OsWRKY34 (Oryza sativa, UniProt Q0JBA9 1-250). The experiment in a line: protein-binding microarray (RPBM); PBS, 2% BSA, 51.3 ng/ul salmon testes DNA, 50 uM zinc acetate, 200 nM TF, 25 C, 1 h; high values mean tight binding. To be noted: protein: recombinant; tags: N-terminal polyhistidine and DsRed monomer fusion (pET32a); label: CyDye5-dUTP incorporated in the synthesized complementary strand; 3' TTTTT single-stranded linker to array surface; dsDNA, one strand shown. In a few lines:
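An Axon 4000B scanner gave the binding signal as per-feature fluorescence intensity in arbitrary units. This followed washing of a custom Agilent array that had been incubated for 1 h at 25 °C with 200 nM protein in PBS, 2% BSA, salmon testes DNA and 50 µM zinc acetate. The proteins were transcription factors fused at the N-terminus to polyhistidine and DsRed, expressed in E. coli BL21-CodonPlus and purified on Ni–NTA.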
Regarding “CGAGCTTTCACTTCTGCGAGGTTGTGTGTTCTTCTAGGGGCGGAGTCACCTAGTGCAG”, the binding signal is 8080 fluorescence intensity (a.u.). The result for “ATCTCCACCTAACGAACACTCAGTCTTTTCTGCGTGAGGGCGGAGTCACCTAGTGCAG” reads 9260 fluorescence intensity (a.u.); that for “TCGTTGCATTCCCACGCGTATTTAACACAACACTTTTAATCGGAGTCACCTAGTGCAG”, 9930 fluorescence intensity (a.u.); that for “GCGTATCCTTATCTGAATATTTGTTTACGTTTCGGCATCTCGGAGTCACCTAGTGCAG”, 13000 fluorescence intensity (a.u.). With “CGCCTCGCTGTTGTCGCCGATCCGCCATGAGCTCGCCGGCCGGAGTCACCTAGTGCAG” the figure was 9720 fluorescence intensity (a.u.); with “TGCCCGTTCGGATCCGGCTAGCTAGCCTCCAGCTCGCCTTCGGAGTCACCTAGTGCAG”, 8800 fluorescence intensity (a.u.); with “AAACCCGCCGCTTTGATTGTACTTGTGCTTTGCTGTTAAACGGAGTCACCTAGTGCAG”, 12600 fluorescence intensity (a.u.). The result for “CTCGTCGTCATCGTCCTCTTCTTCGTCCTCATCGTCGTCGCGGAGTCACCTAGTGCAG” reads 15500 fluorescence intensity (a.u.); that for “CCGCCGTGGTGCTCTCCTCGACATCCTTCTTCTCCTCATCCGGAGTCACCTAGTGCAG”, 8860 fluorescence intensity (a.u.). Regarding “ACATGTACTACTGCTCAACCGTACTTTTCAAGTTGCATTCCGGAGTCACCTAGTGCAG”, the binding signal is 9300 fluorescence intensity (a.u.). With “GATTTATTATTATTATTTTGTGTGTGTGTGTAAAAATCGTCGGAGTCACCTAGTGCAG” the figure was 8580 fluorescence intensity (a.u.). With “AGTAATGTTCTATCCATATGCTCCAGTATGTACTTGTCAACGGAGTCACCTAGTGCAG”, the binding signal is 9400 fluorescence intensity (a.u.). As to “GGTGGGCTATAAATATAGTTGGGGAGGGGAGGGAAGACCCCGGAGTCACCTAGTGCAG”, the binding signal was 16700 fluorescence intensity (a.u.). With “ACTTGAGAATTGGATTTACCAGTTTGAGGGGTTTTTTATTCGGAGTCACCTAGTGCAG” the figure was 9510 fluorescence intensity (a.u.); with “CGCGATGGAGCGGTATCCGTTCTTTCTTTTATATTTTTCTCGGAGTCACCTAGTGCAG”, 9490 fluorescence intensity (a.u.); with “CTTGTTACTTGCAACTCTTTCTCTAATCTTGCTTCGGAAACGGAGTCACCTAGTGCAG”, 8370 fluorescence intensity (a.u.). The result for “ACGACTGTAATTATTTTGGAACGGAGGTAGCAGTGATTTTCGGAGTCACCTAGTGCAG” reads 11400 fluorescence intensity (a.u.); that for “GCACCCGTGCTTCGCCACTATCACCACCATCCTCGTCGGACGGAGTCACCTAGTGCAG”, 8630 fluorescence intensity (a.u.).

For the sequence “TTCCACAGCTTTCTTGAACTTCTCTTGTGCCTCACTCACTCGGAGTCACCTAGTGCAG”, the binding signal was 8170 fluorescence intensity (a.u.).

For “ACGAAAGTTATATTCTGCACCTGTTTTTTTAAATACTTTTCGGAGTCACCTAGTGCAG”, the binding signal is 10400 fluorescence intensity (a.u.). As to “TCCTAATCCAGCATTTGATCCTCCACTAATCCTACCAATTCGGAGTCACCTAGTGCAG”, the binding signal was 9650 fluorescence intensity (a.u.). Take “TTGGATTTGGGTTAATTTGCTTGATGTATGGTGGACGGATCGGAGTCACCTAGTGCAG”: the binding signal was 10200 fluorescence intensity (a.u.).

“AGCCCTTGCTATTCAGGTTTCCTTTTATTGGGTACTAGTGCGGAGTCACCTAGTGCAG”: the binding signal was 9270 fluorescence intensity (a.u.). With “GCAACGGGTATTCTCATCCTCGTTCTCTCCAATCCCATTCCGGAGTCACCTAGTGCAG” the figure was 8680 fluorescence intensity (a.u.); with “TTTCCATGTGTAACTCTAATCGATTATTTTGATCCTATAACGGAGTCACCTAGTGCAG”, 10700 fluorescence intensity (a.u.). With “GTGGGGTGGCATGGTGAGTAATTTTTCACTCAATAATCTACGGAGTCACCTAGTGCAG” the figure was 9320 fluorescence intensity (a.u.). The result for “AGGTAGCGTGGCCTTTTTGTCCTTTTAGGTGGTGTTTGACCGGAGTCACCTAGTGCAG” reads 10900 fluorescence intensity (a.u.); that for “CCTCATCACAAAATGTTTGACGCTGTTGACTTTTTTAAAACGGAGTCACCTAGTGCAG”, 15900 fluorescence intensity (a.u.). Turning to “CTATCTTGACCTCATCCCGTCGACTCCATGCCAATATGCCCGGAGTCACCTAGTGCAG”, the binding signal was 11800 fluorescence intensity (a.u.). Regarding “GACTCTCTCTCTCTCTCTCAAATCTACATCTATGATCTGTCGGAGTCACCTAGTGCAG”, the binding signal was 9630 fluorescence intensity (a.u.). Consider “GTGTGGTCGTCGTGTCGGCGGCGGCGGCGGCGGCGGGAGGCGGAGTCACCTAGTGCAG”, for which the binding signal is 14300 fluorescence intensity (a.u.).

As for “ATCCGTTTCAACAATCACCGCAGCACTCCTCTACCTTACTCGGAGTCACCTAGTGCAG”, the binding signal was 8440 fluorescence intensity (a.u.). With “CTTCTTTTATTACTACTACTATGTTATTATATTTTATTCCCGGAGTCACCTAGTGCAG” the figure was 10400 fluorescence intensity (a.u.); with “GCCTAATGAGCTGCCACTTGTCCTAATGACTCCACATTTTCGGAGTCACCTAGTGCAG”, 11100 fluorescence intensity (a.u.); with “GCCGGCGCTCCGACCAGCACTCGCCGTGCGTTTCTCTTGCCGGAGTCACCTAGTGCAG”, 9330 fluorescence intensity (a.u.).

On to “AATTATTATTTATTTTATTTGTGACTTACTTTATTATCTACGGAGTCACCTAGTGCAG”, for which the binding signal was 8240 fluorescence intensity (a.u.). On to “TCCAAAGTACTCACTCGTACGATATCATTTCCTAAATTTACGGAGTCACCTAGTGCAG”, for which the binding signal was 8660 fluorescence intensity (a.u.). “GTGTTTATAGAGGTTGTCTGCCATAGTGCCCGTGTTCTCCCGGAGTCACCTAGTGCAG”: the binding signal was 8760 fluorescence intensity (a.u.). With “CAGCCCATACCAGCCCAGCCCATTACCTCGCGGCTCGCGCCGGAGTCACCTAGTGCAG”, the binding signal is 9330 fluorescence intensity (a.u.). Regarding “ACCATAAAACCGGACATTCTTCACCCCTAACTATGTAATCCGGAGTCACCTAGTGCAG”, the binding signal was 11200 fluorescence intensity (a.u.).

Regarding “ATAACTATAGTCATAGTTTTCCGCGTCCAACTTTAATTATCGGAGTCACCTAGTGCAG”, the binding signal was 8200 fluorescence intensity (a.u.).

Consider “GGTAGGGGAGGAGGAATAATGCAGGCAGGATGTTACTATGCGGAGTCACCTAGTGCAG”, for which the binding signal is 8930 fluorescence intensity (a.u.).
